PubChem BioAssay AID1259254 – NCATS | 2017
Assay: 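Finding genes that stop cells copying their DNA twice in one cycle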 (primary screen). System: human HCT116 colorectal cancer cells. Reagent: single siRNA against human genes. Time to read-out: 3 days. Read-out: 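Imaged Hoechst DNA stain sorts each cell into a cycle phase by DNA amount; per plate, G2 fraction set to 0% for non-targeting and 100% for GMNN siRNA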. Reading the numbers: G2 robust z-score: higher = more G2 cells, more excess DNA replication. Rule for the call: 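Active siRNAs have a G2 robust z of 5 or more median absolute deviations over the median, which in these data means about 38% or higher of GMNN control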.
Here is a random part of about 59,000 deposited reagents. In the full data, about 1,550 (2.6%) were called active. 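G2 share is only a proxy for re-replication; each gene was hit by three separate siRNAs, and active genes were retested.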 Reagents against one gene are numbered here. Further read-outs or replicates are left out here. Reagent sequences are not shown. Not stated in the record: the amount of reagent.

Knock-down of ZNF284 (zinc finger protein 284) #1 gave: G2 robust z-score -0.158; inactive. Depletion of ZNF284 (zinc finger protein 284) #2 resulted in: G2 robust z-score 0.426; inactive. After knock-down of ZNF284 (zinc finger protein 284) #3, the screen gave G2 robust z-score -0.335; inactive. Silencing of RPL35P10 (ribosomal protein L35 pseudogene 10) #1 resulted in: G2 robust z-score 0.0607; inactive. RPL35P10 (ribosomal protein L35 pseudogene 10) #2 gave G2 robust z-score -0.0201; inactive. With knock-down of RPL35P10 (ribosomal protein L35 pseudogene 10) #3 the results were G2 robust z-score 0.45; inactive.

Against C2CD4C (C2 calcium dependent domain containing 4C) #1 the deposit lists G2 robust z-score -0.337; inactive. Against C2CD4C (C2 calcium dependent domain containing 4C) #2, the values are G2 robust z-score -0.0303; inactive. For C2CD4C (C2 calcium dependent domain containing 4C) #3, the entry reads G2 robust z-score 1.49; inactive. SLC25A35 #1 scored G2 robust z-score 0.866; inactive. For SLC25A35 #2 the deposit lists G2 robust z-score -0.572; inactive. Knock-down of SLC25A35 #3 came out at: G2 robust z-score 0.568; inactive.

A few values from the list:
SLC25A35 #3, G2 robust z-score: 0.568
Result of C2CD4C (C2 calcium dependent domain containing 4C) #2 in “G2 robust z-score”: -0.0303
